Data reported in paper PMC6085347, “Structural basis for reactivating the mutant TERT promoter by cooperative binding of p52 and ETS1” (Nature Communications, 2018).
Residue numbers refer to the chain shown, from its start. Results are given in words; binding and its absence hold for the method and conditions named. Binding calls can cover weak binding; strength is not graded here.

B1: RelB-RHD (residues 111–405) (domain or fragment, UniProt Q01201 111-405)
chain: LGRLVSPAPGPGPQPHLVITEQPKQRGMRFRYECEGRSAGSILGESSTEASKTLPAIELRDCGGLREVEVTACLVWKDWPHRVHPHSLVGKDCTDGICRVRLRPHVSPRHSFNNLGIQCVRKKEIEAAIERKIQLGIDPYNAGSLKNHQEVDMNVVRICFQASYRDQQGQMRRMDPVLSEPVYDKKSTNTSELRICRINKESGPCTGGEELYLLCDKVQKEDISVVFSRASWEGRADFSQADVHRQIAIVFKTPPYEDLEIVEPVTVNVFLQRLTDGVCSEPLPFTYLPRDHDSY
B2: p52-RHD (residues 35–329) (domain or fragment, human, UniProt Q00653 35-329, looked up)
chain: ADGPYLVIVEQPKQRGFRFRYGCEGPSHGGLPGASSEKGRKTYPTVKICNYEGPAKIEVDLVTHSDPPRAHAHSLVGKQCSELGICAVSVGPKDMTAQFNNLGVLHVTKKNMMGTMIQKLQRQRLRSRPQGLTEAEQRELEQEAKELKKVMDLSIVRLRFSAFLRASDGSFSLPLKPVISQPIHDSKSPGASNLKISRMDKTAGSVRGGDEVYLLCDKVQKDDIEVRFYEDDENGWQAFGDFSPTDVHKQYAIVFRTPPYHKMKIERPVTVFLQLKRKRGGDVSDSKQFTYYPLV
notes: In the crystal only residues 226-328 (p52-DSD) are ordered; two p52-DSD form a homodimer through a crystallographic 2-fold axis; also called WT p52
B3: p52-RHD RMK>A (domain or fragment, UniProt Q00653 35-329)
chain: B2 chain with R207A, M263A, K264A

Tests used:
[1] = biological target: Flag-tagged ETS1_(331–441) (human); experiment: pull-down; Flag-tagged ETS1_(331–441) incubated with the RHD proteins in 50 mM Tris HCl pH 7.4, 150 mM NaCl, 2 h at 4 °C, then held on anti-Flag M2 magnetic beads; eluted with FLAG peptide; SDS-PAGE, Coomassie; both purified
ETS1_(331–441) (human) = experiment: crystal structure; p52-RHD, ETS1_(331–441) and a 15 bp -146C>T TERT promoter DNA mixed 1:1:1; crystals at 18 °C in 100 mM HEPES pH 7.0, 2.0 M ammonium sulfate; both purified

Binder | binding [1] | binding (ETS1_(331–441) (human))
B1 | binds | –
B2 | binds | binds
B3 | binds | –
